From patent US20210332024A1, “MODULATORS OF PIN1 ACTIVITY AND USES THEREOF” (Yeda Research and Development Co. Ltd., priority 2019, published 2021)

Amino acid sequences for entries named in this document (tags omitted).
UniProt Q13526, whole entry: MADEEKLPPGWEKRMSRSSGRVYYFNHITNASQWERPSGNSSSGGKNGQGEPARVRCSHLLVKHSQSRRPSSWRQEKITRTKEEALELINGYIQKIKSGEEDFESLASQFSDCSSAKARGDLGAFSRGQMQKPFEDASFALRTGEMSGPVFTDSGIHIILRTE

Biological target: GST-Pin1 (Homo sapiens, UniProt Q13526)
Experiment: Fluorescence polarization (FP) competition assay
Settings: read-out: Ki (apparent), competition with fluorescein-labeled peptide, 250 nM GST-Pin1
Procedure: Binding affinity to Pin1 was determined using a fluorescence polarization assay to assess competition with an N-terminal fluorescein-labeled peptide (Bth-D-phosThr-Pip-Nal), which was obtained from JPT Peptide Technologies and Proteintech Group. The indicated concentrations of candidate compound were pre-incubated for 12 hours at 4° C. with a solution containing 250 nM glutathione S-transferase (GST)-Pin1, 5 nM of fluorescein-labeled peptide probe, 10 μg/ml bovine serum albumin, 0.01% Tween-20 and 1 mM DTT (dithiothreitol) in a buffer of 10 mM HEPES, 10 mM NaCl and 1% glycerol (pH 7.4). Measurements of FP were performed in black 384-well plates (Corning) using an EnVision™ reader. Apparent Ki values (under the tested conditions) obtained from the FP assay results were derived from the Kenakin Ki equation:
Kenakin Ki=(Lb)(EC50)(Kd)/(Lo)(Ro)+Lb(Ro−Lo+Lb−Kd) […]
Covalent labeling of Pin1 was confirmed to translate into enzyme inhibition via a fluorescence polarization (FP) competition assay using a FITC-labeled substrate mimetic peptide inhibitor, as well as a chymotrypsin-coupled PPIase assay, using procedures described in Wei et al. [Nat Med 2015, 21:457-466]. […]

## O=C(CCl)N(Cc1cccs1)C1CCS(=O)(=O)C1 (stereo not shown) [Pin1-433]
  Ki: 40 nM and 194 nM

Not every entry of the source has a single result; some have several. This list holds those alone. An entry can have further records. Values that stand side by side differ, and nothing given here explains why; they may come from other doses, times, organisms or constructs than stated.
